Results are given in words; binding and its absence hold for the method and conditions named. In cells and extracts the contact can be indirect. Some results given as binding are weak or reduced against the parent protein; the word gives no strength.

The chains behind the UniProt entries cited, without tags or fusion partners. Where a name states a change or a piece, a line headed by the entry shows the natural chain unless it says otherwise. A line that says so, or that is headed by a name, gives the form on record, which may keep a tag or linker. Residues count along the entry.
UniProt Q96A56: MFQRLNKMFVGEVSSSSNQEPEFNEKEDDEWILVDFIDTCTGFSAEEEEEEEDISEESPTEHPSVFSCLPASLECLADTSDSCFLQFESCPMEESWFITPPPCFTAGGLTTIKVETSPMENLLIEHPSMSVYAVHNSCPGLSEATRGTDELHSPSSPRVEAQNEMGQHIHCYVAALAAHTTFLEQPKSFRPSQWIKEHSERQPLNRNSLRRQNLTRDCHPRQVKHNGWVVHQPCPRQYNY
TP53INP1α-NTAP (tumor protein 53-induced nuclear protein 1, isoform α) (Q96A56, form named): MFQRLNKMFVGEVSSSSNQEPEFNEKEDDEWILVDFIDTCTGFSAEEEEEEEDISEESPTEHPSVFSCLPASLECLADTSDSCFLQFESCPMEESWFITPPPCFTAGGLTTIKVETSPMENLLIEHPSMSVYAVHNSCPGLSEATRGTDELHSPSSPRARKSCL
UniProt O60260: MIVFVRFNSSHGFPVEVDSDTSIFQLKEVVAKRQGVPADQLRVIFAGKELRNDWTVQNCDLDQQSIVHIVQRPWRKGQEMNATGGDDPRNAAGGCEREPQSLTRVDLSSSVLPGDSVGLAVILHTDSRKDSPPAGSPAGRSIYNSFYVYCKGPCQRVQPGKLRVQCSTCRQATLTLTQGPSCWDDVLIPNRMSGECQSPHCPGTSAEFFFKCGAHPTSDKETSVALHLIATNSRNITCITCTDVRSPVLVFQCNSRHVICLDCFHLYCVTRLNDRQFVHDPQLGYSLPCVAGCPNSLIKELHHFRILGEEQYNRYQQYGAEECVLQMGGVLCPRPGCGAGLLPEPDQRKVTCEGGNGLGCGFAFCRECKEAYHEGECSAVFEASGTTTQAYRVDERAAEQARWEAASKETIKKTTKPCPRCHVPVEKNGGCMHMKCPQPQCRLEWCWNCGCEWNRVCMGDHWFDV
UniProt Q9BXM7, residues 78-581: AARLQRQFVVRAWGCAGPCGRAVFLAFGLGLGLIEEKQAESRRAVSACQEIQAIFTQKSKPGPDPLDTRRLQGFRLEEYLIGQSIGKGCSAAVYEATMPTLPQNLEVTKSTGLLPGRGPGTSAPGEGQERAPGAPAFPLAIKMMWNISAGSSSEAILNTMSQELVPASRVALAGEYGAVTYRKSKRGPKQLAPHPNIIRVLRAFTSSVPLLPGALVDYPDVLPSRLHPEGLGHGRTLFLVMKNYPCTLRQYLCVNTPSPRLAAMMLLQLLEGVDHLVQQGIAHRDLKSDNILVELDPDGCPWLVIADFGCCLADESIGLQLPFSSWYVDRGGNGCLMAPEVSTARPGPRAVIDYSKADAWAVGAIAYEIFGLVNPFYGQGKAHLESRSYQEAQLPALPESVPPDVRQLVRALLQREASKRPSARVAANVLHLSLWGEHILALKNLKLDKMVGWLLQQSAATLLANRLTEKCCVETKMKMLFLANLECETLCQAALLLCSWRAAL

Test [1] concerns the target TP53INP1β-NTAP (tumor protein 53-induced nuclear protein 1, isoform β) (human) (UniProt Q96A56). In words: co-IP; HEK293T cells transfected 24 h with TP53INP1α- or β-NTAP vector or empty pNTAP vector; cells lysed; protein complexes purified on streptavidin-containing resin (InterPlay Mammalian TAP Purification Kit); SDS-PAGE and immunoblot for PINK1, PARKIN, BNIP3, BNIP3L/NIX. Background: In western blotting, separated proteins are transferred to a membrane and probed.

Test [2] addresses TP53INP1α-NTAP (tumor protein 53-induced nuclear protein 1, isoform α) (human) (UniProt Q96A56). The test is described as above.

Turning to PARKIN (from UniProt O60260 1-465), the binding entry in test [1] and in test [2] was “binds” in each case.

As for PINK1 (from UniProt Q9BXM7 78-581), the binding entry in test [1] and in test [2] was “binds” throughout.

(Values after paper PMC4459819.)
